These results are taken from PMC7029000.

Chains of the proteins cited; added tags and fusions are not shown. Lines headed by an entry give the natural chain unless they say otherwise; changes in a name come on top. A line that says so, or that is headed by a name, gives the form on record, which may keep a tag or linker.
UniProt Q91YI4: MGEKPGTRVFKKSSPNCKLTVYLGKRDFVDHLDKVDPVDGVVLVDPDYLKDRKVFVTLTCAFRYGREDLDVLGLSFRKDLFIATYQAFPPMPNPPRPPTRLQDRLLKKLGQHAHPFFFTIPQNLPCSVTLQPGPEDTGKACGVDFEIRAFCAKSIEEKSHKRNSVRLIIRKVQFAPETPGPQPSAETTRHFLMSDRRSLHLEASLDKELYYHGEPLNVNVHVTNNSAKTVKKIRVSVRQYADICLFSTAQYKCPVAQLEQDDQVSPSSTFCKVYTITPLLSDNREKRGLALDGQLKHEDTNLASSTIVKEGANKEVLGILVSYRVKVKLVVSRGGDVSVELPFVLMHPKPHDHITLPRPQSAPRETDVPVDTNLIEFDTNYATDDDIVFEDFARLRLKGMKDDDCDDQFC
UniProt P52480: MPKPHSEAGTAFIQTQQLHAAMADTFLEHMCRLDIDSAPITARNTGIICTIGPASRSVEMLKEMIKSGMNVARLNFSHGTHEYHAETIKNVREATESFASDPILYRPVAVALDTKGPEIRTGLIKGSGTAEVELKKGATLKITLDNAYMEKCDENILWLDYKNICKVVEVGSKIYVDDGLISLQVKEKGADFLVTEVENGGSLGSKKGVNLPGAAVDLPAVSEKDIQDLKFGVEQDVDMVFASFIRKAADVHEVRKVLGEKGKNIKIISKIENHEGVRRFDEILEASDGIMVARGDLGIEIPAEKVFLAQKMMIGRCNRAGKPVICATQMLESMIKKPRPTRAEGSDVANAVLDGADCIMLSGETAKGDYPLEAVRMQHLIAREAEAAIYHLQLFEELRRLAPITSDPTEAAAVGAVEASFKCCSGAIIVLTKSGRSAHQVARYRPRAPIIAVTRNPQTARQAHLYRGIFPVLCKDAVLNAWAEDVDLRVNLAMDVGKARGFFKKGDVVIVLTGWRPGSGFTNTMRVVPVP
PKM1 (P52480-2, form named): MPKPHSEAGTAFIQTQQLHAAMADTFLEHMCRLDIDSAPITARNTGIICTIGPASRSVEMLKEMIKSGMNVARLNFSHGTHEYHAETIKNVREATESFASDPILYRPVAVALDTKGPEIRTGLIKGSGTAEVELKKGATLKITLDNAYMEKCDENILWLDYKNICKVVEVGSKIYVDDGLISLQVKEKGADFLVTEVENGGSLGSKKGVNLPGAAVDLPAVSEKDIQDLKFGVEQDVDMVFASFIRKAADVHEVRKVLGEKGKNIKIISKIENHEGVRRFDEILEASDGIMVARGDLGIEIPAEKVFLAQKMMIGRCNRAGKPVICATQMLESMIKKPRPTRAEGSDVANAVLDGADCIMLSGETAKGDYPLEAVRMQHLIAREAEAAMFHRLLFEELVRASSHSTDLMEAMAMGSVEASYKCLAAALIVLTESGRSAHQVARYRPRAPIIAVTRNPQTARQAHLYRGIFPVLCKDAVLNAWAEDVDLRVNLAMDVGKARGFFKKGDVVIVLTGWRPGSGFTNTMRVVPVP

The target of test [1] is T1, Nrf2 (mouse (endogenous in primary astrocytes)) (UniProt Q60795).
T1 sequence: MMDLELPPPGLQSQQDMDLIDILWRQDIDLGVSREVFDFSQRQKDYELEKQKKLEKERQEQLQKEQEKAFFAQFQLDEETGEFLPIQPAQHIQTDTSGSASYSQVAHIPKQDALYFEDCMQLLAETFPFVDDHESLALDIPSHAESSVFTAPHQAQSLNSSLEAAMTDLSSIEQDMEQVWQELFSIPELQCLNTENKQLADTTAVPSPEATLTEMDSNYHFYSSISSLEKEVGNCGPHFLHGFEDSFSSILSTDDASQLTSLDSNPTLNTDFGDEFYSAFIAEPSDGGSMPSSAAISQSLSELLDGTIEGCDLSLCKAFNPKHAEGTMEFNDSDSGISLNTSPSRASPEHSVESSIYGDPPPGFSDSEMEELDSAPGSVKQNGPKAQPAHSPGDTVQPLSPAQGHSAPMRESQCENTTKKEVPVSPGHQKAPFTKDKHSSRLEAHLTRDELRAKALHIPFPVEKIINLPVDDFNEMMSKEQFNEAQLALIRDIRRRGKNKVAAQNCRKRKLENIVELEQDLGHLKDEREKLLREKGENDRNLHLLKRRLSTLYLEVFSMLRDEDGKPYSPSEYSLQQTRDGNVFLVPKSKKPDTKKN
In words: co-IP; lysates of primary astrocytes (150 mM NaCl, 0.5% NP-40, 10% glycerol) precipitated with anti-Nrf2 antibody, blotted for PKM2 or PKM1; cells treated with 10 µM quinpirole, 50 µM DASA-58, 5 µM pyridoxine, or from β-arrestin2-knockout mice; PKM1 also overexpressed by adenovirus.

The target of test [2] is β-arrestin2 (mouse (endogenous in primary astrocytes)) (UniProt Q91YI4). The experiment in a line: co-IP; lysates of primary astrocytes (150 mM NaCl, 0.5% NP-40, 10% glycerol) precipitated with anti-β-arrestin2 antibody, blotted for PKM2; after DRD2 activation with quinpirole.
The target of test [3] is T1, Nrf2 (mouse (endogenous in primary astrocytes)). The experiment in a line: proximity ligation; Duolink PLA in fixed primary astrocytes with mouse anti-Nrf2 and rabbit anti-PKM2 antibodies; cells treated with 10 µM quinpirole, 50 µM DASA-58, 5 µM pyridoxine, or from β-arrestin2-knockout mice.

These are yes or no findings as the source states them, for the method shown. In cells and extracts the contact can be indirect. Some entries that bind do so weakly or less than the wild type.

“3 X -FLAG-tagged PKM1 (from UniProt P52480-2 1-531) (enzyme)”: in test [1], the binding entry was “no binding”.

For the substance “PKM1 (from UniProt P52480-2 1-531) (enzyme)”, the binding result in test [1] was “no binding”.

On to “PKM2 (from UniProt P52480 1-531) (enzyme)”, for which the binding result in test [1], in test [2] and in test [3] was “binds” throughout.
